Results are given in words; binding and its absence hold for the method and conditions named. Some results given as binding are weak or reduced against the parent protein; the word gives no strength.
Molecular target: antibody 623
Assay: competition ELISA, titrated IL-13 pre-incubated with antibody, plate coated with IL-13RbFc

Sequences of proteins named here, by UniProt entry; tags and fusion partners are left off. Residues count along the entry.
UniProt P35225, residues 35-146: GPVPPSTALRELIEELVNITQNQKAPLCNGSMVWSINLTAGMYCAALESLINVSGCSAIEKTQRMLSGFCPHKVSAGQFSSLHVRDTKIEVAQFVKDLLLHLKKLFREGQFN

## IL-13 (human IL-13, preparation not specified) (from UniProt P35225 35-146) (ligand)
  binding: binds
